Drawing on the supplement of paper PMC10849652, this text covers log2 fold change for 15 targets.

Amino acid sequences for entries named in this document (tags omitted). A change or cut given only in a name is not applied to a line headed by its entry.
UniProt Q8WU17: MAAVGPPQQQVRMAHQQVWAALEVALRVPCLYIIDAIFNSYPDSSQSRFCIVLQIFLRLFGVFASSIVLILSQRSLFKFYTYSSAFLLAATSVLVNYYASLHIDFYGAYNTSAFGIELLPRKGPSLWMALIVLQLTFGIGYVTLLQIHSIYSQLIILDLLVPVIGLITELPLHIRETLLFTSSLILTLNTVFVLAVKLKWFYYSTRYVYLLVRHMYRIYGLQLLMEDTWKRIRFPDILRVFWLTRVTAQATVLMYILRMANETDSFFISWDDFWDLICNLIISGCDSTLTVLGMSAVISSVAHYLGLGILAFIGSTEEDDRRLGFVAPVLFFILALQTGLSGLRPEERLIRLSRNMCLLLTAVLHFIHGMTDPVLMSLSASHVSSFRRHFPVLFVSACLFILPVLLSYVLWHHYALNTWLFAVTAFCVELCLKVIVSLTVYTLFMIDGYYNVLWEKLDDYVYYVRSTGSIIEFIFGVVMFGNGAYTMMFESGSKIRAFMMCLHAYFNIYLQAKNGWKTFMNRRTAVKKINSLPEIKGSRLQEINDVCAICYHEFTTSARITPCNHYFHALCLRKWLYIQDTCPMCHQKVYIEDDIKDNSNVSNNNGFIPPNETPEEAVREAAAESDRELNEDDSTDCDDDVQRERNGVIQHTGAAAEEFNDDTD
UniProt O43566: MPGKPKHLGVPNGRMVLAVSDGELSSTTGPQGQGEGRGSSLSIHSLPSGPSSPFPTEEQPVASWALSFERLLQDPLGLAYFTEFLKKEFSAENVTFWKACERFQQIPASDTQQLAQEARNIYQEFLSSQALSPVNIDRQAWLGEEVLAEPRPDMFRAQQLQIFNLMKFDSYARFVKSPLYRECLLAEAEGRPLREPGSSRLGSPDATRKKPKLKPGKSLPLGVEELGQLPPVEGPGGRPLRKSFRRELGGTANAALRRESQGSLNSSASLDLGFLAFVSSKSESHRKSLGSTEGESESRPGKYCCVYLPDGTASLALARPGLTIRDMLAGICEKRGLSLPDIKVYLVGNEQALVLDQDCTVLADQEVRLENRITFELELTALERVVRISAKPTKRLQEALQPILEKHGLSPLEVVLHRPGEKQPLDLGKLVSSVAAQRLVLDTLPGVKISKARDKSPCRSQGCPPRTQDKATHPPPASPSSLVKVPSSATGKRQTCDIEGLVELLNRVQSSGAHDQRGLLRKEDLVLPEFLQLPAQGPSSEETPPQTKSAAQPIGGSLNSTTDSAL
UniProt Q96LZ7: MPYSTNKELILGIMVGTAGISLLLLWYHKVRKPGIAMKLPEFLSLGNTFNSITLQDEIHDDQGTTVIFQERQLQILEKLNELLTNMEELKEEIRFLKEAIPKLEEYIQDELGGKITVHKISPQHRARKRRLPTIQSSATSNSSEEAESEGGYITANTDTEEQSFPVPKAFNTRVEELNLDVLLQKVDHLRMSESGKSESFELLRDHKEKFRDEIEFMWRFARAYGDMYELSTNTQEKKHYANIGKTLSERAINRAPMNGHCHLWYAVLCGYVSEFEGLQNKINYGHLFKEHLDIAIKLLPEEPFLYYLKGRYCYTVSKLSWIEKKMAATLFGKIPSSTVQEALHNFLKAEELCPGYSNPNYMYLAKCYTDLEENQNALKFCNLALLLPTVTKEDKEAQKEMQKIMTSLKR
UniProt P35251: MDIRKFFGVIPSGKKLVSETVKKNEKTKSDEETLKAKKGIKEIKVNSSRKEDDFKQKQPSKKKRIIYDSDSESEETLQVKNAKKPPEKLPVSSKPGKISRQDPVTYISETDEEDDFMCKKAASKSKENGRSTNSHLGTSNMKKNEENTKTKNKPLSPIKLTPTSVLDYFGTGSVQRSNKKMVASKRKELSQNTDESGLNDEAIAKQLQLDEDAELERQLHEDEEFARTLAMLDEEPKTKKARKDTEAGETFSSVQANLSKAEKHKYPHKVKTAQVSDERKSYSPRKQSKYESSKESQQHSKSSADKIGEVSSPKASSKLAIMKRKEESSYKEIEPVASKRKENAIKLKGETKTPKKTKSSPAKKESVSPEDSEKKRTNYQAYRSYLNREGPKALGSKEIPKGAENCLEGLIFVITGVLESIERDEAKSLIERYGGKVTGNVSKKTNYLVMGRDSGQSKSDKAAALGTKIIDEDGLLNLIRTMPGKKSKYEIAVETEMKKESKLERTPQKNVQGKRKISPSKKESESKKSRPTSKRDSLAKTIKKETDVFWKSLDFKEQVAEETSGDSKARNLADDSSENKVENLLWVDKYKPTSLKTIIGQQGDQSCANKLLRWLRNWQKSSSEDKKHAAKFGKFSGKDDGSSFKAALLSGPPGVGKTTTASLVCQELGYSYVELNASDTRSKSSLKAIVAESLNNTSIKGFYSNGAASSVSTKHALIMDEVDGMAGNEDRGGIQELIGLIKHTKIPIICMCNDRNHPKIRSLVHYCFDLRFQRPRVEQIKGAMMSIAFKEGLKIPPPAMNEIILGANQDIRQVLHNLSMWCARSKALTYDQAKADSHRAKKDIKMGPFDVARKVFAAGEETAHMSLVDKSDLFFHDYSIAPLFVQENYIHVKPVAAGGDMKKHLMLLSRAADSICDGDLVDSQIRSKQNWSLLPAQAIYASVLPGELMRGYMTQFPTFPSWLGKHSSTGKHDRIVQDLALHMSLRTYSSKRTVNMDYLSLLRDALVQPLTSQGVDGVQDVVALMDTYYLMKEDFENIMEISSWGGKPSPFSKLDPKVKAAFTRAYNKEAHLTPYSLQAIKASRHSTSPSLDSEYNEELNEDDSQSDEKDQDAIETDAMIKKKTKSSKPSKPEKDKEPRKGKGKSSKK
UniProt Q92546: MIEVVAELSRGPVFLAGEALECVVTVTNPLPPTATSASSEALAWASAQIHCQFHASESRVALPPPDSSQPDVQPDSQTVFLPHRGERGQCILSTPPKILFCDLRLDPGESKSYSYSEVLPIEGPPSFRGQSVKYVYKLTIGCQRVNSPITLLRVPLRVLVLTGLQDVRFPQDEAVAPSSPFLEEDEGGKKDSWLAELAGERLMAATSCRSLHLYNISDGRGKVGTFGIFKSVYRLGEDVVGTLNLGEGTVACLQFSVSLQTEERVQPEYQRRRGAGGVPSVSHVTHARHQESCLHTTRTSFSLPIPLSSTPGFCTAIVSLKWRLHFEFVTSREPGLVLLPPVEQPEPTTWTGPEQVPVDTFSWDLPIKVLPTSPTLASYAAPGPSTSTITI
UniProt O94762: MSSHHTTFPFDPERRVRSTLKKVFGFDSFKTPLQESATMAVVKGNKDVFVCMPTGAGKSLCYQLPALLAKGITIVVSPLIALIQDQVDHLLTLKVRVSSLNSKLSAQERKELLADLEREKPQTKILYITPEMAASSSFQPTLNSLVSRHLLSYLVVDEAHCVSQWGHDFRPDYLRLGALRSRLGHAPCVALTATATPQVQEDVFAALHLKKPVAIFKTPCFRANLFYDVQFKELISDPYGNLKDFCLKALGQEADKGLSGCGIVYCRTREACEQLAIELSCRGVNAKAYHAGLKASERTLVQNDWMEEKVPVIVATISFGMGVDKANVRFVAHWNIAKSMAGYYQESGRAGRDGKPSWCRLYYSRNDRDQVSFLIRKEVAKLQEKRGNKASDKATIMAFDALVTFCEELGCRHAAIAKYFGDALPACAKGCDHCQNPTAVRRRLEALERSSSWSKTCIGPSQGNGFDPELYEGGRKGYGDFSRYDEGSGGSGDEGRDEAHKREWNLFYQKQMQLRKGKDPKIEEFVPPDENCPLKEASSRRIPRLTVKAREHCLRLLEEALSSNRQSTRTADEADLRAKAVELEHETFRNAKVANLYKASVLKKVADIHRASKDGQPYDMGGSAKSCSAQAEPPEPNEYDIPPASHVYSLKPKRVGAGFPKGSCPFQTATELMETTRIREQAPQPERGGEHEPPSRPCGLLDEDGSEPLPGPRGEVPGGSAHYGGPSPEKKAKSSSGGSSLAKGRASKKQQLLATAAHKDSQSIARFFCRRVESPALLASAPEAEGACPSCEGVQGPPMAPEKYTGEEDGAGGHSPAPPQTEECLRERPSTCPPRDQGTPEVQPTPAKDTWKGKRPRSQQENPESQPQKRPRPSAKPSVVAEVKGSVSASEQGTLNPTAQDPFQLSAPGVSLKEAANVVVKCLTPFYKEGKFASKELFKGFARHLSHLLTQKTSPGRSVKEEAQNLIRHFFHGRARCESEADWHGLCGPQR
UniProt Q8IUF8: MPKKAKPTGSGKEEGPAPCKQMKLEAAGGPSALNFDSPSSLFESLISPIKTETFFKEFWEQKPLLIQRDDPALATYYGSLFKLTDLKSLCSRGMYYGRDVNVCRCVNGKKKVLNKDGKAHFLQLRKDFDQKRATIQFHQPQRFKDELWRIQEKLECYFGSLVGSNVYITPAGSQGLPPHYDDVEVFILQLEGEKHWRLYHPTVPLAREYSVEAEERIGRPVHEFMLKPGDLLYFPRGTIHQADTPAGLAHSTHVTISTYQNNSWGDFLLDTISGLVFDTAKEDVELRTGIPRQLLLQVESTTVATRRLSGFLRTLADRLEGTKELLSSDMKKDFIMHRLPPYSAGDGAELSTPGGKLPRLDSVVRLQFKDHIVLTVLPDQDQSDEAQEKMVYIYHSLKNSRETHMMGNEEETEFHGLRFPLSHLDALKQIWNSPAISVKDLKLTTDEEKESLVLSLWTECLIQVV
UniProt Q96E14: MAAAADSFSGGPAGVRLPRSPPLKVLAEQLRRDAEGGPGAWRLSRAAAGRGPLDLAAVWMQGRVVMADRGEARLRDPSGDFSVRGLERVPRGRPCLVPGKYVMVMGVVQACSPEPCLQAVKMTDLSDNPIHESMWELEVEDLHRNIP
UniProt Q96A37: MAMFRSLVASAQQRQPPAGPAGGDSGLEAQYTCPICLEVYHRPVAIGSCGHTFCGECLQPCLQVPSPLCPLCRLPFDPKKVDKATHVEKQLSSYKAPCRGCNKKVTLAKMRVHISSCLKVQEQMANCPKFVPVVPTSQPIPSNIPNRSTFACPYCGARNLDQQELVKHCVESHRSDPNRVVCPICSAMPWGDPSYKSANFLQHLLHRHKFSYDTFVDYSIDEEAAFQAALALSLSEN
UniProt O43567: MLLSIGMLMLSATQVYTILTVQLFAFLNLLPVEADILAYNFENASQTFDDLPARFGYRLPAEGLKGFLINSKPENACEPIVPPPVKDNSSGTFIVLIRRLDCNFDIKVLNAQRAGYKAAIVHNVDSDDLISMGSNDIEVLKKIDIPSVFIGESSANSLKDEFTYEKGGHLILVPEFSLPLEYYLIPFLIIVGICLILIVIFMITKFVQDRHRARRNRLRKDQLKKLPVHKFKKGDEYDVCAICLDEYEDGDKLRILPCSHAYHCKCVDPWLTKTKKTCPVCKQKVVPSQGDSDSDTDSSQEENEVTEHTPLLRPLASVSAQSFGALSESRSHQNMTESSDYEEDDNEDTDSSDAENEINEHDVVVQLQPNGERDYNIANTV
UniProt Q8WVD5: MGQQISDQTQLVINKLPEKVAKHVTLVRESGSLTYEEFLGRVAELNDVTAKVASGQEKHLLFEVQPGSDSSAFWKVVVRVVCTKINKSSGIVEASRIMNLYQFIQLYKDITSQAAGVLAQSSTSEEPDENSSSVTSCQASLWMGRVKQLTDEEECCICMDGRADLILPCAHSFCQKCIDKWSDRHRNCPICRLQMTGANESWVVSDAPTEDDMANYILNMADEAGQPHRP
UniProt Q6PCD5: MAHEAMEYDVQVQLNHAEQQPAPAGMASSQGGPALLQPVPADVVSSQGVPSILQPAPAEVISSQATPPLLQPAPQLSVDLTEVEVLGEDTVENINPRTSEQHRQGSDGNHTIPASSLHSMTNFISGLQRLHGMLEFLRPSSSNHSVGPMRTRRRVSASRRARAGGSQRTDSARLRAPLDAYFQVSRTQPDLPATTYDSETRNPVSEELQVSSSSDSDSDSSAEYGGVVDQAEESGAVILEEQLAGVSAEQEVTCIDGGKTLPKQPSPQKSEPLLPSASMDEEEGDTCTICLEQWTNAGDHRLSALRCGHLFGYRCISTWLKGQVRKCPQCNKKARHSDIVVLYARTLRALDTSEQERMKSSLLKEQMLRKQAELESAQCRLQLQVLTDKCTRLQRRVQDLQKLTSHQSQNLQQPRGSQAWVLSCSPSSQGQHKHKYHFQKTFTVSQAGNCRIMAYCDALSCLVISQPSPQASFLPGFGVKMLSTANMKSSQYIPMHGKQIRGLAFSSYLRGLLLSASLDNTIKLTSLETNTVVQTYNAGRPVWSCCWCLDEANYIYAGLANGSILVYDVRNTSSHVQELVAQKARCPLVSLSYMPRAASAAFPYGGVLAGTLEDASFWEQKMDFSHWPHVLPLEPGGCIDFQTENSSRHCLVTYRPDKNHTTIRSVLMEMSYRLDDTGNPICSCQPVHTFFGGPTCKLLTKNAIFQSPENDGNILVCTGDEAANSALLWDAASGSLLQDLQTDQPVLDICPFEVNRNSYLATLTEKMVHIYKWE

Some of the results follow.

Compound in this assay: CN(C)CC(=O)Nc1ccc2[nH]c(=O)c3ccccc3c2c1
Description: log2 fold change, soluble protein after heating vs DMSO (PISA); higher = thermal stabilisation; K562 cells, 10 uM, 30 min; active = over 0.2 and 3.5 SD of the protein, either way, in both replicates (recomputed). The method in brief: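 K562 cells at 2×10^6 cells/mL were given 10 μM compound for 30 min. Aliquots then went through 3 min of heating across 48°C-58°C, were pooled, and were extracted in PBS with 0.5% NP-40 at 4°C, and the supernatant after 21,000xg for 90 min was quantified by TMTpro 16plex LC-MS/MS with channel sums equalised. Thermal stability relative to control samples, from duplicates, is given as log2 fold change.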
RNF139 (UniProt Q8WU17): the log2 fold change is inactive: -0.012.

Regarding RGS14 (UniProt O43566), the log2 fold change was inactive: -0.147.

With RMDN2 isoform 2 (UniProt Q96LZ7), the log2 fold change was inactive: -0.167.

With RFC1 (UniProt P35251), the log2 fold change was inactive: -0.042.

As to RGP1 (UniProt Q92546), the log2 fold change is inactive: 0.023.

For the target RECQL5 (UniProt O94762), the log2 fold change was inactive: -0.026.

With RIOX2 (UniProt Q8IUF8), the log2 fold change was inactive: 0.093.

As to RBP4 (UniProt P02753), the log2 fold change is inactive: -0.039.

Regarding RMI2 (UniProt Q96E14), the log2 fold change was inactive: 0.153.

RNF166 (UniProt Q96A37): the log2 fold change was inactive: -0.046.

Turning to RNF13 (UniProt O43567), the log2 fold change is inactive: -0.076.

Take RNF167 (UniProt Q9H6Y7): the log2 fold change was inactive: -0.008.

On to RNF141 (UniProt Q8WVD5), for which the log2 fold change is inactive: -0.083.

Take RILPL1 (UniProt Q5EBL4): the log2 fold change was inactive: -0.011.

For the target RFWD3 (UniProt Q6PCD5), the log2 fold change was inactive: -0.076.
